Measurements reported in PubChem BioAssay AID1508588 (Peter MacCallum Cancer Centre, 2020)

Test: 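Genome-wide search for knock-downs that heighten vemurafenib action in melanoma cells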 (primary screen)
System: human WM266.4 melanoma cells (BRAF V600 mutant)
Reagents: siRNA pool against human genes, 40 nM
Timing: 96 h from transfection to read-out
Conditions: vemurafenib 300 nM (about IC25), added 48 h after transfection, for 48 h; comparison arm got DMSO vehicle only
Detection: 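Cell gain (DAPI nuclei at end minus before drug, mean of two replicates) and medium lactate by absorbance per cell, both as ratio to non-targeting siRNA, also grouped into fold-change classes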
Reading the numbers: cell gain with vemurafenib: higher = more cell gain than with non-targeting siRNA; lactate per cell with vemurafenib: higher = more lactate made per cell
Active means: 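a knock-down counts as enhancing when its fold-change classes with vehicle and with vemurafenib, taken together, show a stronger drug effect on cell gain or lactate per cell; exact class pairs not stated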
Meaning of the calls: active = enhances vemurafenib effect; inactive = no enhancement seen
Shown is one part, drawn at random, of about 18,000 reagents tested. 790 of them (4.4%) count as active. 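Calls rest on a combination of fold-change classes in drug and vehicle arms, not all shown here.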

cell gain with vemurafenib	lactate per cell with vemurafenib	call	gene symbol	PubChem SID
0.69	0.69	inactive	ICAM4	SID152153466
0.26	0.82	inactive	CNTNAP4 (contactin associated protein family member 4)	SID152150773
0.69	0.78	inactive	KCNN1 (potassium calcium-activated channel subfamily N member 1)	SID134311686
0.99	0.51	inactive	MYO6 (myosin VI)	SID134311749
0.61	1.03	inactive	CHST1 (carbohydrate sulfotransferase 1)	SID152147925
0.83	0.54	inactive	DAG1 (dystroglycan 1)	SID152149869
0.79	0.51	inactive	ADGRL4 (adhesion G protein-coupled receptor L4)	SID152150329
0.25	1.23	inactive	TMEM139 (transmembrane protein 139)	SID134320770
0.69	0.41	active	KIF5A (kinesin family member 5A)	SID134313426
0.19	2.91	inactive	CLDN14 (claudin 14)	SID134321245
1	0.7	inactive	FAM131A (family with sequence similarity 131 member A)	SID135623583
0.51	0.54	inactive	VCX2 (variable charge X-linked 2)	SID135621227
0.54	0.9	inactive	ZNF266 (zinc finger protein 266)	SID134325014
0.88	1.2	inactive	TAS2R14 (taste 2 receptor member 14)	SID134314668
0.71	0.42	inactive	ZNF383 (zinc finger protein 383)	SID134320442
0.91	0.78	inactive	BIN3 (bridging integrator 3)	SID152155331
0.59	0.64	inactive	SLC16A10	SID134312451
0.56	0.9	inactive	UGT2A3 (UDP glucuronosyltransferase family 2 member A3)	SID134318586
0.49	2.43	inactive	AGMO (alkylglycerol monooxygenase)	SID152149351
0.36	0.45	active	LYRM2 (LYR motif containing 2)	SID152149617
1.16	0.88	inactive	CORO1A (coronin 1A)	SID152147662
0.62	1.39	inactive	SLC60A2	SID152154206
0.2	0.32	active	AIF1L (allograft inflammatory factor 1 like)	SID152150444
0.2	1.92	inactive	DAB2 (DAB adaptor protein 2)	SID152148574
0.81	0.9	inactive	STX11 (syntaxin 11)	SID152155094
0.38	0.91	inactive	DERA (deoxyribose-phosphate aldolase)	SID152146837
0.43	0.68	active	SIRT6 (sirtuin 6)	SID135622500
0.33	0.37	inactive	KAT2A (lysine acetyltransferase 2A)	SID152155377
0.38	1.21	inactive	SBSPON (somatomedin B and thrombospondin type 1 domain containing)	SID135623157
0.51	1.8	inactive	ST3GAL1 (ST3 beta-galactoside alpha-2,3-sialyltransferase 1)	SID152156367
0.6	1.48	inactive	NR2F6 (nuclear receptor subfamily 2 group F member 6)	SID134309874
-0.16	2.84	inactive	ZNF484 (zinc finger protein 484)	SID152149552
0.64	0.92	inactive	PRSS48 (serine protease 48)	SID152154582
0.42	1.29	inactive	ESRRA (estrogen related receptor alpha)	SID134309854
-0.12	0.34	active	EIF4A3 (eukaryotic translation initiation factor 4A3)	SID134324407
0.76	1.08	inactive	DNAJC9 (DnaJ heat shock protein family (Hsp40) member C9)	SID134321774
0.82	0.87	inactive	XBP1 (X-box binding protein 1)	SID134314284
1.15	0.76	inactive	MAP2K6 (mitogen-activated protein kinase kinase 6)	SID135620765
0.52	0.64	inactive	C22orf42 (chromosome 22 open reading frame 42)	SID135624461
0.2	1.85	inactive	SLC41A2	SID152150488
0.98	0.36	inactive	NECAB1 (N-terminal EF-hand calcium binding protein 1)	SID135623454
0.73	0.92	inactive	ANK2 (ankyrin 2)	SID152150031
-0.15	0.26	inactive	OR8U9 (olfactory receptor family 8 subfamily U member 9)	SID135625175
0.59	0.12	active	CCDC121 (coiled-coil domain containing 121)	SID134318536
0.64	0.56	inactive	PGM5 (phosphoglucomutase 5)	SID135621591
0.46	1.01	inactive	SPHAR (retired record)	SID152146944
0.42	2.12	inactive	TTC21A (tetratricopeptide repeat domain 21A)	SID135623154
0.84	0.84	inactive	MCTP1 (multiple C2 and transmembrane domain containing 1)	SID152147334
0.25	1.08	inactive	HSD11B2 (hydroxysteroid 11-beta dehydrogenase 2)	SID152149769
0.2	0.58	inactive	MC4R (melanocortin 4 receptor)	SID152154315
0.06	2.02	inactive	MRPL58 (mitochondrial ribosomal protein L58)	SID134315017
0.71	0.81	inactive	SLC67A1	SID134312498
0.18	2.41	inactive	SENP6 (SUMO specific peptidase 6)	SID135621128
1.11	1.09	inactive	CRMP1 (collapsin response mediator protein 1)	SID152155398
0.96	0.74	inactive	PHF23 (PHD finger protein 23)	SID152154651
0.76	1.1	inactive	SHCBP1L (SHC binding and spindle associated 1 like)	SID135622796
1.26	0.67	inactive	C6orf120 (chromosome 6 open reading frame 120)	SID135625271
